In paper PMC12291482:
No constants are given. Whether binding was seen depends on the method and setting. Binding seen in cells or lysates may run through a third protein. These calls come from enrichment with a bait or labelling near it, and not all partners need be listed.

Chains of the proteins cited; added tags and fusions are not shown. Residues count along the entry.
UniProt P13612, residues 34-1032: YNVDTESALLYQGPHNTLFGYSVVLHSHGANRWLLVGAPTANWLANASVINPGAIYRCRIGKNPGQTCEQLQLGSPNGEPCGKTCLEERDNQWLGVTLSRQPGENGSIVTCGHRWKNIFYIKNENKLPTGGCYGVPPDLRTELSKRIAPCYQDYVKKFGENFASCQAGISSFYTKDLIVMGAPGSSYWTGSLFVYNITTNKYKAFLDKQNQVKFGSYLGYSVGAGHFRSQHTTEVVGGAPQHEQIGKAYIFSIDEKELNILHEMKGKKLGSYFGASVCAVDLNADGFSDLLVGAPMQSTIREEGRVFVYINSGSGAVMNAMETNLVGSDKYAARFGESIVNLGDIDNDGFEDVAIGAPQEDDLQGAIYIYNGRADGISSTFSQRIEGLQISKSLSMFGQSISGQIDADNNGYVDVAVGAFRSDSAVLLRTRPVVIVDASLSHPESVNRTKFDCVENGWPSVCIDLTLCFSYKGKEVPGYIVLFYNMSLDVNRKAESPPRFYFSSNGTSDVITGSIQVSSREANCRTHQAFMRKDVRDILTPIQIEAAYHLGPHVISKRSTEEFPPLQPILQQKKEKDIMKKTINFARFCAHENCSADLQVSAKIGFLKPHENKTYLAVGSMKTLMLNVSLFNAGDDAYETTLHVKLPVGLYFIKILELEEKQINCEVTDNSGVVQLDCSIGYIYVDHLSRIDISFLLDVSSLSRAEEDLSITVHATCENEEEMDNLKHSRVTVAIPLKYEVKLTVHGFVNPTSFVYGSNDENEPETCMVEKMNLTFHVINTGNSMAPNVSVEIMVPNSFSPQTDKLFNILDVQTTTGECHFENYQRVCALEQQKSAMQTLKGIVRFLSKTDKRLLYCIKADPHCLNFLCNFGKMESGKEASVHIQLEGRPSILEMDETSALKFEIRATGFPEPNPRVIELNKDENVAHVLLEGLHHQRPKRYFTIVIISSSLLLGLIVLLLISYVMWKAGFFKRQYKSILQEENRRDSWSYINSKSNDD

Biological target: T1, Melanoma cell adhesion molecule (MCAM) (UniProt P43121)
T1 sequence: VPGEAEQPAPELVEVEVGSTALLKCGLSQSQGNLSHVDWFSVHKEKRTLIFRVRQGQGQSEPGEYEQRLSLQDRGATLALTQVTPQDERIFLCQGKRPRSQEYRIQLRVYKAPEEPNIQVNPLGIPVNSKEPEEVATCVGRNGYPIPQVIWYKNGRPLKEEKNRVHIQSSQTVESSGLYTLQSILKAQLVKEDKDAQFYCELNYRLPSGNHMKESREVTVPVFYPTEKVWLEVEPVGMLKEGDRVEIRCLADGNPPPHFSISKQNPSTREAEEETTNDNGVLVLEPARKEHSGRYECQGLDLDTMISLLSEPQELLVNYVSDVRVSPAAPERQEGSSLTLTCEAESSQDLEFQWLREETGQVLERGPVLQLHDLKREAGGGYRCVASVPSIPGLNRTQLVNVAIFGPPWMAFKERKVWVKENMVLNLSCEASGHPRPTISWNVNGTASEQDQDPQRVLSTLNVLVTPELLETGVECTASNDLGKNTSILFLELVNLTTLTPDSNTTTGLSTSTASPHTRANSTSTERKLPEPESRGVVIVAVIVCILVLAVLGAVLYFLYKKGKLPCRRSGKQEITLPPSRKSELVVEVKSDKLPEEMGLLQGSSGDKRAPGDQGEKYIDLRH
Assay: affinity purification with mass spectrometry; immunoprecipitation coupled with mass spectrometry (IP/MS) of MCAM from MCAM-overexpressing HCC827 cells

binding	Substance
binds	integrin α4 (from UniProt P13612 34-1032)
binds	integrin α6 (human (endogenous in HCC827))
